Consider 1 substance from patent publication US7176277.

The chains behind the UniProt entries cited, without tags or fusion partners.
UniProt Q07812: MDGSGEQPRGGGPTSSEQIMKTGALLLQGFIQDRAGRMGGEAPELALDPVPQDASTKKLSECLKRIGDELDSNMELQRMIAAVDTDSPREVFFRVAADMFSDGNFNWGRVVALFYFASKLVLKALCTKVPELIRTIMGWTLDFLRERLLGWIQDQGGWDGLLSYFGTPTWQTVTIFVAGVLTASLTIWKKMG

Results are given in words; binding and its absence hold for the method and conditions named. Binding seen in cells or lysates may run through a third protein. Some binding calls cover weakened binding; strength is not graded here.

The target in the assay is GST-Bcl-2 [GST: P08515]. The assay is described as follows: GST pull-down, SDS-PAGE autoradiography.

As to Bax (from UniProt Q07812 1-192), the binding result was “binds”.
